Assay [1] has as its target fusion protein of human CD79B extracellular domain (ECD) and His tag (human CD79B ECD-His) (human) (UniProt P40259). Description: SPR etc.
In assay [2] the target is human CD79B antigen (coating antigen of the ELISA, construct not stated) (human) (UniProt P40259). Description: ELISA, purified antibody from 100 nM (1:10 dilutions) on plate coated with antigen 1 µg/mL. A general note: ELISA stands for enzyme-linked immunosorbent assay.
For assay [3] the target is unchanged. Description: ELISA, plate coated with antigen at 1 ug/mL, serial antibody dilutions, OD450.

Protein sequences, listed by entry. Tags and fused reporters are not part of them. Residues count along the entry.
UniProt P40259, residues 29-159: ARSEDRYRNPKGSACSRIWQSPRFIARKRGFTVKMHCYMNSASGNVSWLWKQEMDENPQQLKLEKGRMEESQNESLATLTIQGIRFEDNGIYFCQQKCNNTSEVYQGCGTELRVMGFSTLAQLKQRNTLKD

Residue numbers refer to the chain shown, from its start. These are yes or no findings as the source states them, for the method shown. Some binding calls cover weakened binding; strength is not graded here.

B1: humanized antibody hAb015 (antibody, human IgG1, kappa, V domains shown)
VH: EVQLVQSGAEVKKPGSSVKVSCKASGSSFSSYGINWVKQAPGQGLEWIGEIFPRSGNTYYNEKFEGRATLTADKSTSTAYMELRSLRSEDTAVYYCAKGDLGDFDYWGQGTTVTVSS
VL: DFVMTQTPLSLPVTPGEPASISCRSSQSIVHSDGNTYFEWYLQKPGQSPKLLIYKVSNRFSGVPDRFSGSGSGTDFTLKISRVEAEDVGVYYCFQGSHVPWTFGGGTKVEIKR
As for B1, in assay [1], the binding result is listed as “binds”.

B2: humanized antibody hAb017 (antibody, human IgG1, kappa, V domains shown)
VH: EVQLVQSGAEVKKPGASVKVSCKASGYTFTTYGINWVKQAPGQGLEWIGEIYPRSGNIYYNEKFKGKATLTADKSTSTAYMELRSLRSDDTAVYYCARGSDYDGDFAYWGQGTLVTVSS
VL: B1 VL with F2V, S32H, F38L, K50Q
In the case of B2, the binding result in assay [1] is reported as “binds”.

B3: murine hybridoma monoclonal antibody mAb015 (antibody, V domains shown)
VH: QVQLQQSGAELARPGASVKLSCKASGSSFTSYGINWVKQRTGQGLEWIGEIFPRSGNTYYNEKFEGKATLTADKSSSTAYMELRSLTSEDSAVYFCAKGDLGDFDYWGQGTTLTVSS
VL: DFLMTQTPLSLPVRLGDQASISCRSSQSIVHSDGNTYFEWYLQKPGQSPKLLIYKVSNRFSGVPDRFSGSGSGTDFTLKISRVEAEDLGVYYCFQGSHVPWTFGGGTKLEIK
B3: the binding entry in assay [2] and in assay [3] was “binds” each time.

B4: murine hybridoma monoclonal antibody mAb016 (antibody, V domains shown)
VH: QVQLQQSGAELARPGASVKLSCKASGYIFTNYGIIWVKQRTGQGLEWIGDIFPGSGNTYYNENFKGKATLTADKSSSTAYMELRSLTSEDSAVYFCSRGELGDFDYWGQGTTLTVSS
VL: B3 VL with D1V, F2V, R14S, S28N, N35T, F38L, V90I
B4: the binding result in assay [2] and in assay [3] was “binds” each time.

B5: murine hybridoma monoclonal antibody mAb017 (antibody, V domains shown)
VH: QVQLQQSGAELARPGASVKLSCKASGYTFTTYGINWVKQRTGQGLEWIGEIYPRSGNIYYNEKFKGKATLTADKSSSTAYMELRSLTSEDSAVYFCARGSDYDGDFAYWGQGTLVTVSA
VL: B3 VL with F2V, R14S, S32H, F38L, K108Q
As for B5, the binding entry in assay [2] and in assay [3] was “binds” in each case.

For the origin of these results see patent publication US20220162304A1.
